PubChem BioAssay AID1508588 | Peter MacCallum Cancer Centre – 2020
The deposit covers about 18,000 reagents; shown is an unselected part. 790 of all reagents (4.4%) were called active. 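Calls rest on a combination of fold-change classes in drug and vehicle arms, not all shown here.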 A number with no mark means an inactive call.

Assay: 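Knock-downs boosting vemurafenib effects on melanoma cell growth or lactate release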 (primary screen)
System: human WM266.4 melanoma cells (BRAF V600 mutant)
Reagent: siRNA pool against human genes, 40 nM
Time to read-out: 96 h from transfection to read-out
Conditions: vemurafenib 300 nM (about IC25), added 48 h after transfection, for 48 h; comparison arm got DMSO vehicle only
Read-out: 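Ratios to non-targeting siRNA for cell gain, counted as DAPI nuclei after minus before drug and averaged over two replicates, and for absorbance-read medium lactate per cell; both binned into fold-change classes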
Reading the numbers: cell gain with vemurafenib: higher = more cell gain than with non-targeting siRNA; lactate per cell with vemurafenib: higher = more lactate made per cell
Rule for the call: 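Enhancement is called by pairing each knock-down's vehicle-arm and drug-arm fold-change classes for viability or glycolysis; which class combinations qualify is not given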
Meaning of the calls: active = enhances vemurafenib effect; inactive = no enhancement seen

| target gene | cell gain with vemurafenib | lactate per cell with vemurafenib |
| --- | --- | --- |
| H3C15 | 1.1 | 0.48 |
| XKR8 | 0.54 | 1.15 |
| ITLN2 | 0.98 | 1.06 |
| VCP | 0.05 | 2.95 |
| DCDC2 | 0.54 | 0.67 |
| ECSIT | 0.34 | 1.17 |
| PHACTR3 | 0.63 (active) | 0.36 |
| CSF3R | 0.49 | 1.48 |
| ZSCAN1 | 0.84 | 0.9 |
| BCL2L14 | 0.17 | 1.19 |
| ZNF347 | 0.34 | 1.24 |
| MPDU1 | 0.23 | 0.84 |
| SERAC1 | 0.54 | 0.86 |
| SPDEF | 0.92 (active) | 0.46 |
| CASP7 | 0.86 | 0.86 |
| VPS8 | 1.03 | 1.02 |
| LTBP4 | 1.03 | 0.83 |
| PCDHGB2 | 0.22 | 1.08 |
| IRAK4 | 0.62 | 0.55 |
| COL26A1 | 0.34 | 1.85 |
| IL36R | 0.54 | 0.56 |
| PNPLA8 | 0.72 | 1 |
| FXYD7 | 0.52 | 0.57 |
| MYO5B | 0.87 | 0.99 |
| MKRN3 | 0.99 | 0.66 |
| STRIP2 | 0.35 | 1.5 |
| APOA1 | 0.88 | 0.57 |
| TBC1D15 | 0.77 | 1.4 |
| SUN3 | 0.99 | 0.38 |
| SLC25A51 | 0.33 | 0.74 |
| UBA7 | 0.49 | 1.18 |
| FLII | 0.61 | 1.2 |
| VARS1 | 0.76 | 1.09 |
| WDR31 | 0.59 | 0.7 |
| MMADHC | 1.25 | 0.47 |
| UCKL1 | 0.33 | 1.09 |
| ETV6 | 0.86 | 0.68 |
| MYORG | 0.48 | 1.45 |
| TBC1D22B | 0.64 | 1.01 |
| PCDHB15 | 0.32 | 1.12 |
| CHFR | 1.02 | 0.77 |
| B3GALT2 | 0.67 | 0.62 |
| SUMF1 | 0.39 | 0.43 |
| NCOA5 | 0.8 | 1.7 |
| UBE2L3 | 0.42 | 0.5 |
| NRF1 | 0.54 | 0.57 |
| AR | 0.84 | 0.99 |
| DRC7 | 0.98 | 0.5 |
| TSPAN10 | 0.48 | 0.58 |
| CIMAP1B | 0.22 | 1.36 |
| GPC4 | 0.53 | 0.9 |
| DDX49 | 0.67 | 0.97 |
| TPBG | 0.58 | 0.52 |
| TNNI3K | 1.07 | 0.83 |
| MRPL46 | 0.64 | 0.76 |
| NOP16 | 0.53 | 0.44 |
| TSPAN17 | 0.81 | 1.03 |
